Assay results from PubChem BioAssay AID2417 (National Center for Advancing Translational Sciences (NCATS), 2010).
In all, about 140,000 compounds went through this assay and about 4,300 (3.1%) were called active. Inconclusive means that the source gave no clear call. Such entries were picked first, then a sample of the others.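 How the source made its calls: active means readout at or below -70, meaning at least 70% loss of cells showing the perinucleolar compartment, a nuclear body marking cancer cells; inconclusive means readout between -30 and a set limit; inactive means the rest.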

assay: High Content Assay for Compounds that inhibit the Assembly of the Perinucleolar Compartment; details: PC3M PTB-GFP, PNC prevalence imaging, 16 h; at 10 µM; stronger effect = lower value;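 further: plate controls were DMSO wells for no effect and camptothecin positive control wells for full effect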
How it was run: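 PC3M cells stably expressing PTB-GFP, 750–1000 cells/well, treated 16 h at 37 °C with compound (23 nl of library stock), in duplicate. After paraformaldehyde fixation and Hoechst stain, imaged at 20x; PNC prevalence scored by image analysis.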

Row | SMILES | activity change (PNC), negative = inhibition
1 | N#CC1=C(N)Oc2c(ccc3ccccc23)C1c1ccsc1 (stereo not given) | inactive: -20.8%
2 | Cc1ccc(N(C)C(=O)N2CCN(S(=O)(=O)c3ccc4ccccc4c3)CC2)cc1 | inactive: -0.642%
3 | Cc1ccccc1OCCC(=O)Nc1cccc(S(=O)(=O)Nc2ccccc2Cl)c1 | inactive: 28.9%
4 | O=C1c2ccccc2-c2c1cccc2C(=O)N1CCCCC1 | inactive: 7.99%
5 | CC(=O)Nc1cc(OC(=O)c2ccco2)cc(OC(=O)c2ccco2)c1 | inactive: 8.19%
6 | CC(=O)NC1CC2CCCC(C1)N2CC(=O)NCc1ccc(F)cc1 (stereo not given) | inconclusive: -46.5%
7 | CCCN1C(=O)c2cc(C(=O)NC3CCCCCC3)ccc2C1O (stereo not given) | inactive: -21.7%
8 | CCOc1ccc(C2NC(=O)c3n[nH]c(C)c32)cc1 (stereo not given) | inconclusive: -75.9%
9 | CC(C)(C)C1CCc2c(sc3nc(SCC(N)=O)nc(N)c23)C1 (stereo not given) | inconclusive: -51.4%
10 | COc1cc(NC(=O)c2cc3ccccc3o2)c(OC)cc1Cl | inconclusive: -38.9%
11 | CCCCOc1ccccc1C1NC(=O)NC(C)=C1C(=O)OCc1ccco1 (stereo not given) | inconclusive: -48.9%
12 | CCN(CC)C(=S)SCC(=O)NC12CC3CC(CC(C3)C1)C2 | inactive: 5.09%
13 | COc1cc(NC(=O)C2CCCN2C(=O)OCc2ccccc2)cc(OC)c1 (stereo not given) | inconclusive: -52.1%
14 | COc1cccc(-c2cc3nc4c(c(N5CCC6(CC5)OCCO6)n3n2)CCCC4)c1 | inconclusive: -63.3%
15 | CCC1(C(=O)OC)NC(c2ccccc2OC)C2C(=O)N(C)C(=O)C21 (stereo not given) | inconclusive: -41.7%
16 | CCC(C)(C)n1nnnc1C(c1cc2cc3c(cc2[nH]c1=O)OCO3)N1CCN(C)CC1 (stereo not given) | inconclusive: -48.3%
17 | COc1ccc(/C=N/NC(=O)CCc2ccccc2)cc1O | inconclusive: -35.7%
18 | Cc1ccc(N(CC(=O)NCCc2ccccc2)S(=O)(=O)c2c(C)noc2C)cc1 | inconclusive: -51.4%
19 | C=CCNC(=S)/N=c1\sccn1C | inconclusive: -78%
20 | CCOC(=O)c1[nH]c2c(c1C)C(=O)CC(c1ccc(N(C)C)cc1)C2 (stereo not given) | inconclusive: -36.6%

Some values from the entries so far.
N#CC1=C(N)Oc2c(ccc3ccccc23)C1c1ccsc1 (stereo not given) – activity change (PNC), negative = inhibition: inactive: -20.8%
CCN(CC)C(=S)SCC(=O)NC12CC3CC(CC(C3)C1)C2 – activity change (PNC), negative = inhibition: inactive: 5.09%
Cc1ccc(N(CC(=O)NCCc2ccccc2)S(=O)(=O)c2c(C)noc2C)cc1 – activity change (PNC), negative = inhibition: inconclusive: -51.4%

Continuation.

Row | SMILES | activity change (PNC), negative = inhibition
21 | Cc1nn(-c2ccccc2)c(C)c1C(=O)Nc1nnc(-c2ccco2)o1 | inconclusive: -51.5%
22 | CCOC(=O)Nc1cccc(Nc2ccccc2)c1 | inconclusive: -45.4%
23 | Cc1cc(C)n(-c2nc3ccccc3nc2Nc2ccc3[nH]c(=O)[nH]c3c2)n1 | inconclusive: -41.3%
24 | N/C(Cc1ccc(Cl)cc1)=N\OC(=O)c1ccccc1 | inconclusive: -68.7%
25 | Cc1ccc(OCCOCCNC(C)(C)C)c([N+](=O)[O-])c1 | inconclusive: -57.2%
26 | C=CCSc1nnc2nc3[nH]c4c(C)cccc4c3nn12 | inactive: 32.8%
27 | COc1ccc(OCCCC(=O)NCC(C)C)cc1 | inconclusive: -53.1%
28 | COc1cc(C)c(-c2[nH]ncc2-c2csc(C)n2)c(O)c1 | inconclusive: -31.1%
29 | CC(=O)N1CCN(c2nnnn2-c2ccccc2)CC1 | inactive: -27.8%
30 | CN(c1ccccc1)S(=O)(=O)c1cc(C(=O)c2nccn2C)ccc1Cl | inconclusive: -55.4%
31 | CCCCS/C(N)=N/N=C/c1cc(C)ccc1O | active: -106%
32 | NC(=O)c1ccc(-n2nnnc2Oc2ccccc2C(=O)N2CCOCC2)cc1 | active: -122%
33 | CCOc1ccc(S(=O)(=O)NCCSCc2ccco2)cc1 | inconclusive: -30.7%
34 | O=C(c1cc2ccccc2o1)n1nnc2ccccc21 | inactive: 15.7%
35 | CCOC(=O)c1ccc(NS(=O)(=O)c2cc(-c3nnnn3C(C)C)ccc2OC)cc1 | inactive: 0.547%
36 | CC(=O)Nc1ccc(S(=O)(=O)c2c(N)n(CCN3CCOCC3)c3nc4ccccc4nc23)cc1 | inconclusive: -58.5%
37 | CC1Cc2ccccc2N1C(=O)C1CCCCN1S(=O)(=O)c1ccccc1 (stereo not given) | inactive: 48.2%
38 | O=C(NC1CCCCC1)C(c1ccc(Cl)cc1)N1CCC2(CC1)OCCO2 (stereo not given) | inconclusive: -36.8%
39 | O=C(NC(=S)Nc1ccccc1)c1ccc(-c2ccccc2)cc1 | inactive: -6.65%
40 | Cc1cccc(CN2CCC(CNC(=O)CCNC(=O)Cn3ccc4ccccc4c3=O)CC2)c1 | inconclusive: -48.5%

Row | SMILES | activity change (PNC), negative = inhibition
41 | CCCN1CCN(C(=O)Cn2ncc3ccccc32)CC1 | inconclusive: -34.1%
42 | Cc1c(/C(O)=C2\C(=O)C(=O)N(CCCN(C)C)C2c2ccccc2)cnn1-c1ccccc1 (stereo not given) | inactive: 4.88%
43 | CCCOc1ccc(Cc2nn[nH]n2)cc1 | inconclusive: -30.5%
44 | CCN(Cc1ccccc1)C(=O)CSc1nc(C)cc(C)c1C#N | inactive: 22.7%
45 | COC(=O)c1sc2ncccc2c1OCc1cccc(Cl)c1 | inactive: 23.3%
46 | COc1ccc(-c2csc(NC(=O)c3ccco3)n2)cc1 | inconclusive: -35.5%
47 | CCCN(CCO)Cc1cccc(Oc2ccccc2)c1 | inconclusive: -39.3%
48 | Cc1c(NC(=O)CSc2nnc3sc4ccccc4n23)c(=O)n(-c2ccccc2)n1C | inconclusive: -50.3%
49 | O=C(N/N=C/c1ccco1)c1cnccn1 | inactive: 17.2%
50 | O=[N+]([O-])c1ccccc1SN(Cc1ccccc1)c1ccccn1 | inactive: -2.11%
51 | COC(=O)c1sc(NC(=S)NC(=O)c2ccccc2Cl)nc1C | inconclusive: -36.4%
52 | CCN(Cc1ccncc1)C(=O)c1cccs1 | inconclusive: -41.8%
53 | c1ccc(CCc2nc(-c3ccncc3)no2)cc1 | inconclusive: -55.6%
54 | COc1ccc(-n2ccsc2=S)cc1 | inconclusive: -31.4%
55 | Cc1ccc(NCc2nnc(SCC(=O)Nc3ccccc3)n2CC2CCCO2)c(C)c1 (stereo not given) | inconclusive: -31.3%
56 | CCn1c(SCc2ccc(C)cc2)nnc1-c1cnccn1 | inconclusive: -49%
57 | COC(=O)C1=C(C)N(C)C(=O)NC1c1cc(Cl)c(O)c(OC)c1 (stereo not given) | inconclusive: -37.7%
58 | CCCOC(=O)c1c(NC(=O)CCCn2nc([N+](=O)[O-])cc2C)sc(C(=O)OC)c1C | active: -119%
59 | O=C1c2ccccc2NC2(CCCC2)N1O | active: -108%
60 | COc1ccccc1C1CC(=O)Nc2c1c(=O)n(C)c(=O)n2C (stereo not given) | inactive: 19.8%
